# Assay results taken from PubChem BioAssay AID588499 (NMMLSC, 2011).
# The whole screen tested about 360,000 compounds, of which about 610 (0.17%) were called active. Inconclusive means that the source gave no clear call. Such entries were picked first, then a sample of the others. No stated cut-off is given here; in the data, active means inhibition above about 30%; inconclusive means no clear call, values can overlap the other calls; inactive means below that.
# System: Botulinum neurotoxin type A light chain protease (Clostridium botulinum A str. ATCC 3502)
# Experiment: blockers of BoNT/A LC substrate cleavage – biochemical, flow cytometry, MLPCN library, primary screen (AID 588499); further: plate controls were buffer without enzyme for full effect and enzyme alone for no effect
# Conditions: multiplex microsphere protease substrate cleavage, at 10 µM, hits give high values
row,Compound,inhibition
1,Cc1ccc(C)c(C(=O)COC(=O)c2ccccc2N2C(=O)C3C4CCC(C4)C3C2=O)c1 (centres undefined),inconclusive: 0.1%
2,C=CCONC(=O)c1cc(OCC(F)(F)F)ccc1OCC(F)(F)F,inactive: -3.2%
3,COc1cccc(-c2cc(C(=O)N/N=C/c3cccc(OC)c3OC)c3ccccc3n2)c1,inconclusive: 6.2%
4,c1ccc(Nc2cc(-c3ccccc3)nc3ncnn23)cc1,inconclusive: -1.6%
5,CC(C)(C)OC(=O)N1C[C@H](O)C[C@H]1C(=O)OCC(=O)c1ccc([N+](=O)[O-])cc1,inactive: -1.6%
6,CC(C)(C)c1ccc(CC(=O)N2CCC2(C)C(=O)N2CCCCC2)cc1 (centres undefined),inactive: -0.3%
7,Cc1cc(OCC(=O)c2ccc(C(F)(F)F)cc2)n2cnnc2n1,inconclusive: -63.7%
8,Cc1ccc(Cl)cc1N1CCN(Cc2cc3c(cc2O)CCC3)CC1,inconclusive: -0.3%
9,NCCCCCc1nnc(SCc2ccc(Cl)cc2Cl)o1,inconclusive: -9.5%
10,O=C(CCCCCCCC(=O)NCC1CCCO1)NCC1CCCO1 (centres undefined),inconclusive: 0.8%
11,C=CCn1c(O)c2ccc(C(=O)N=NC(=O)c3ccc(F)cc3)cc2c1O,inconclusive: -3.1%
12,COc1ccc(C)cc1NC(=O)c1ccc(OC(F)F)cc1,inactive: 0.2%
13,Cc1ccc(CN2C(=O)CCC2(C)c2nnnn2Cc2ccccc2)cc1 (centres undefined),inactive: -0.5%
14,Cc1nc(C(=O)NNC(=O)c2c(-c3c(Cl)cccc3Cl)noc2C)cs1,inconclusive: -11.7%
15,Cc1ccc(CN2C(=O)CSC2c2cccnc2)cc1 (centres undefined),inconclusive: 7.5%
16,Nc1cccc(CCc2ccncc2)c1,inconclusive: 3.3%
17,O=C(NCc1cccnc1)C(C(=O)c1ccc(F)cc1)n1ccccc1=O (centres undefined),inconclusive: 0.5%
18,COc1ccc(S(=O)(=O)N2CCC(C(=O)NCC3CCCO3)CC2)cc1C (centres undefined),inconclusive: -2.6%
19,O=[N+]([O-])c1ccc(/C=N/n2c(C3CCCCC3)n[nH]c2=S)cc1,inconclusive: 0.2%
20,CCOc1nc(-c2ccc(OC)cc2)ccc1-c1noc(-c2ccncc2)n1,inconclusive: 1.6%

# A draw from above in order of formula weight, low to high.
row,Compound,inhibition
16,Nc1cccc(CCc2ccncc2)c1,inconclusive: 3.3%
15,Cc1ccc(CN2C(=O)CSC2c2cccnc2)cc1 (centres undefined),inconclusive: 7.5%
10,O=C(CCCCCCCC(=O)NCC1CCCO1)NCC1CCCO1 (centres undefined),inconclusive: 0.8%

# Remaining list, next part

row,Compound,inhibition
1,CC1(C)CC(=O)C2=C(C1)N(Cc1cccnc1)C(=O)C2(NC(=O)c1cccnc1)C(F)(F)F (centres undefined),inactive: 0.3%
2,CC(C)Sc1n[nH]c(=O)n1-c1ccccc1,inconclusive: 2.9%
3,COc1ccc(CN2CCCCCC2)cc1Br,inconclusive: -5.7%
4,Cc1ccc(-n2cc(CCCCCCCCC(=O)O)nn2)cc1,inactive: -1.1%
5,Cc1ccc(NCCC(=O)c2ccc(Cl)c(Cl)c2)cc1,inconclusive: -0.6%
6,O=C(Nc1ccc2c(c1)C(=O)N(c1ccccc1)C2=O)C1CCCO1 (centres undefined),inconclusive: 1.2%
7,COc1cc(/C=N/NC(=O)c2cc(-c3c(C)nn(-c4ccccc4)c3C)n[nH]2)ccc1O,inactive: -0.3%
8,CCn1nnnc1NCc1cccn1C,inactive: -1.4%
9,COc1c(N)c2c(c([N+](=O)[O-])c1OC)C(=O)OC2,inactive: 0.2%
10,Cc1ccc(C(=O)NNC2=NC(C)(C)Cc3ccccc32)cc1,inconclusive: -1.3%
11,COc1ccc(CNC(=O)C2CCN(C(=O)N(C)C)CC2)c(OC)c1,inconclusive: -1.2%
12,Cc1oc(=O)c(NC(=O)c2ccc(Cl)cc2)cc1C(=O)c1ccccc1,inconclusive: 0.8%
13,O=C(CN(C(=O)c1csnn1)c1ccc(F)cc1)NCCc1ccccc1,inactive: 0.5%
14,CC1=C(c2ccccc2)C(=S)NC(C)(C)C1,inconclusive: 4.8%
15,O=[N+]([O-])c1ccccc1S(=O)(=O)N1CCN(C2CCCC2)CC1,inconclusive: 3.3%
16,CC(C)(C)C(=O)N1CCN(c2ncccc2C(F)(F)F)CC1,inconclusive: -18.8%
17,Cn1c(-c2ccccc2)cnc1SCc1nc2ccccc2c(=O)[nH]1,inconclusive: 3.9%
18,CCS(=O)(=O)N1CCN(C2Cc3ccccc3C2)CC1,inconclusive: 0.9%
19,O=C(Nc1ccccc1)NC1CCN(Cc2c(F)cccc2Cl)CC1,inconclusive: 2.9%
20,CCOc1ccccc1N1CCN(CC(=O)Nc2cc(C)on2)CC1,inactive: -0.8%

row,Compound,inhibition
1,CN(C)CCCNS(=O)(=O)c1cc(Cl)c(Cl)cc1Cl,inconclusive: 3%
2,COc1ccc(NC(=O)CN(C)C(=O)c2cc(-c3ccc(Cl)cc3)nc3ccccc23)cc1,inactive: 1.2%
3,O=C(CSc1nnc(CNC(=O)c2c(F)cccc2Cl)o1)NCc1ccc(F)cc1,inactive: 0.2%
4,C=CCN1C(=O)NC2(O)C(=O)c3ccccc3C12O (centres undefined),inactive: -0.1%
5,NC(=O)NC(=O)CN1C(=O)NC2(CCOc3ccccc32)C1=O (centres undefined),inactive: 0%
6,Cc1ccc(C(=O)C(OC(=O)CNS(=O)(=O)c2ccccc2)c2ccccc2)cc1 (centres undefined),inconclusive: 2.1%
7,CSc1ccc(/C=N/n2c(C)cc(C)cc2=O)cc1,inconclusive: -3.2%
8,Cc1ccc(C(=O)Nc2cccc(NC(=O)c3ccc(C)o3)n2)o1,inactive: 2%
9,c1ccc(-c2cnc(-c3ccccc3)nc2)cc1,inconclusive: 1.9%
10,CCC(=NCCc1c[nH]c2ccccc12)c1c(O)n(-c2ccc(C)cc2)c(=O)[nH]c1=O,inactive: -0.4%
11,CCOC(=O)c1ccc(NC(=O)CSCc2ccco2)cc1,inconclusive: -1.7%
12,CC(=O)Nc1ccc(NC(=O)CCCCCN2C(=O)c3ccccc3C2=O)cc1,inactive: 3.7%
13,Cc1ccc(/C(O)=C2\C(=O)C(=O)N(CCN(C)C)C2c2ccccc2F)cc1 (centres undefined),inconclusive: -0.3%
14,CN(C)C(Cc1ccc(C#N)cc1)C(=O)c1ccccc1 (centres undefined),inactive: -0.2%
15,COc1cccc2cc(C(=O)NCC3CCCO3)c(=O)oc12 (centres undefined),inactive: -0.9%
16,CCC(C)NC(=O)c1c(N)n(Cc2ccc3c(c2)OCO3)c2nc3ccccc3nc12 (centres undefined),active: 30.3%
17,CCOc1cccc(-c2nnc3sc(-c4cc(OC)c(OC)c(OC)c4)nn23)c1,inactive: -0.2%
18,CC(=O)c1c(C)[nH]c(C(=O)COc2ccc3ccc(=O)oc3c2)c1C,inactive: -7.3%
19,Cc1ccc(C(=O)NCc2ccco2)cc1S(=O)(=O)Nc1cccc(Cl)c1,inconclusive: 0.8%

# For convenience, some entries already given:
row,Compound,inhibition
19,O=[N+]([O-])c1ccc(/C=N/n2c(C3CCCCC3)n[nH]c2=S)cc1,inconclusive: 0.2%
20,CCOc1nc(-c2ccc(OC)cc2)ccc1-c1noc(-c2ccncc2)n1,inconclusive: 1.6%
